Measurements from the supplement of paper PMC12024529.
Counter-ions that a name gives are not always drawn. This is one part of the list. Part of the spread comes from offsets between plates or batches.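 HEK293 lines stably express B-domain-deleted factor VIII fused to Gaussia luciferase, wild type or a misfolding-prone missense mutant. Scores equal triplicate-well mean luminescence minus DMSO mean, divided by DMSO standard deviation; scores of 2 or higher are hits. Low scores may indicate reduced secretion or worse cell viability.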

What was measured:
HEK293 WT BDD-FVIII-Gluc = test: secreted FVIII-Gluc luciferase Z-score vs DMSO control; higher = more FVIII-Gluc secretion; settings: 5 µM; 24 h
[1] = test system: HEK293 p.N1941S BDD-FVIII-Gluc; test: as above; settings: 5 µM; 24 h

| SMILES | secreted FVIII-Gluc luciferase Z-score (HEK293 WT BDD-FVIII-Gluc) | secreted FVIII-Gluc luciferase Z-score [1] |
| --- | --- | --- |
| CO[C@@H]1[C@@H](OC(N)=O)[C@@H](O)[C@H](Oc2ccc3c(O)c(NC(=O)c4ccc(O)c(CC=C(C)C)c4)c(=O)oc3c2C)OC1(C)C [Novobiocin sodium (Albamycin)] | inactive: -0.464 | inactive: 0.0516 |
| CC1(C)[C@@H](O[C@H]2O[C@H](C(=O)O)[C@@H](O)[C@H](O)[C@H]2O[C@@H]2O[C@H](C(=O)O)[C@@H](O)[C@H](O)[C@H]2O)CC[C@]2(C)[C@H]3C(=O)C=C4[C@@H]5C[C@@](C)(C(=O)O)CC[C@]5(C)CC[C@@]4(C)[C@]3(C)CC[C@@H]12 [Ammonium Glycyrrhizinate] | inactive: 0.924 | inactive: -0.807 |
| NS(=O)(=O)Cc1noc2ccccc12 [Zonisamide] | inactive: -4.77 | inactive: -0.158 |
| CC(COc1ccccc1)N(CCCl)Cc1ccccc1 (stereo not drawn) [Phenoxybenzamine HCl] | inactive: 0.114 | inactive: -0.951 |
| O=C1c2ccccc2C(=O)C1c1ccccc1 [Phenindione (Rectadione)] | inactive: -1.7 | inactive: 0.863 |
| CN1CC(=O)N2[C@H](c3ccc4c(c3)OCO4)c3[nH]c4ccccc4c3C[C@@H]2C1=O [Tadalafil (Cialis)] | inactive: -2.26 | inactive: -1.09 |
| Cc1ccc(NC(=O)c2ccc(CN3CCN(C)CC3)cc2)cc1Nc1nc(-c2cccnc2)cs1 [Masitinib (AB1010)] | inactive: -2.87 | inactive: -8.43 |
| CS(=O)(=O)CCNCc1ccc(-c2ccc3ncnc(Nc4ccc(OCc5cccc(F)c5)c(Cl)c4)c3c2)o1 [Lapatinib] | inactive: 0.285 | inactive: -0.116 |
| CCCc1ncc(C[n+]2ccccc2C)c(N)n1 [Amprolium HCl] | inactive: 1.17 | inactive: 1.09 |
| Cc1ccnc2c1NC(=O)c1cccnc1N2C1CC1 [Nevirapine (Viramune)] | inactive: -0.466 | inactive: -0.928 |
| Nc1nc2ccc(OC(F)(F)F)cc2s1 [Riluzole (Rilutek)] | inactive: 0.00217 | inactive: 0.271 |
| CC#CCn1c(N2CCC[C@@H](N)C2)nc2c1c(=O)n(Cc1nc(C)c3ccccc3n1)c(=O)n2C [Linagliptin (BI-1356)] | inactive: 1.96 | inactive: -0.155 |
| CCC1=C(C)CN(C(=O)NCCc2ccc(S(=O)(=O)NC(=O)N[C@H]3CC[C@H](C)CC3)cc2)C1=O [Glimepiride] | inactive: -4.97 | inactive: 0.514 |
| C[C@@H]1O[C@@H]1P(=O)(O)O [Fosfomycin Tromethamine] | inactive: -0.707 | inactive: 0.315 |
| CN/C(=N\CCSCc1nc[nH]c1C)NC#N [Cimetidine (Tagamet)] | inactive: -2.99 | inactive: -0.413 |
| CC(C[N+](C)(C)C)OC(N)=O (stereo not drawn) [Bethanechol chloride] | inactive: 0.126 | inactive: -6.17 |
| CC(=O)Nc1ccccc1 [Acetanilide (Antifebrin)] | inactive: -1.49 | inactive: -4.48 |
| Cc1ccc(N(CC2=NCCN2)c2cccc(O)c2)cc1 [Phentolamine mesilate] | active: 2.04 | inactive: -0.857 |
| C[C@@H]1C(=O)O[C@H]2C[C@@]34[C@H]5C[C@@H](C(C)(C)C)[C@]36[C@@H](OC(=O)[C@@H]6O)O[C@@]4(C(=O)O5)[C@]21O [Ginkgolide A] | inactive: 0.58 | inactive: -1.41 |
| O=C(O)c1cc(=O)c2ccccc2o1 [Chromocarb] | inactive: 0.388 | inactive: 0.0209 |
| C/C(O)=C(\C#N)C(=O)Nc1ccc(C(F)(F)F)cc1 [Teriflunomide] | inactive: -1.13 | inactive: 0.227 |
| S=c1[nH]cnc2nc[nH]c12 [Mercaptopurine] | inactive: -3.32 | inactive: -1.33 |
| Cc1c(-c2ccc(O)cc2)n(Cc2ccc(OCCN3CCCCCC3)cc2)c2ccc(O)cc12 [Bazedoxifene HCl] | inactive: -0.199 | inactive: -0.607 |
| C[C@H](Cn1cnc2c(N)ncnc21)OCP(=O)(O)O [Tenofovir] | inactive: -1.36 | inactive: -0.198 |
| CCCCN1CCCCC1C(=O)Nc1c(C)cccc1C (stereo not drawn) [Bupivacaine hydrochloride (Marcain)] | inactive: -1.69 | inactive: -2.36 |
| C[N+]1(C)[C@@H]2C[C@@H](OC(=O)C(O)(c3cccs3)c3cccs3)C[C@H]1[C@@H]1O[C@@H]12 [Tiotropium Bromide hydrate] | inactive: -1.37 | inactive: -1.02 |
| CS(=O)(=O)c1ccc(C2=C(c3ccccc3)C(=O)OC2)cc1 [Rofecoxib (Vioxx)] | inactive: -0.768 | inactive: -1.52 |

Reprinted from above (2 entries):

| SMILES | secreted FVIII-Gluc luciferase Z-score (HEK293 WT BDD-FVIII-Gluc) | secreted FVIII-Gluc luciferase Z-score [1] |
| --- | --- | --- |
| C/C(O)=C(\C#N)C(=O)Nc1ccc(C(F)(F)F)cc1 [Teriflunomide] | inactive: -1.13 | inactive: 0.227 |
| S=c1[nH]cnc2nc[nH]c12 [Mercaptopurine] | inactive: -3.32 | inactive: -1.33 |

Next part

| SMILES | secreted FVIII-Gluc luciferase Z-score (HEK293 WT BDD-FVIII-Gluc) | secreted FVIII-Gluc luciferase Z-score [1] |
| --- | --- | --- |
| O=C(O)/C=C/c1ccc(Cn2ccnc2)cc1 [Ozagrel HCl] | inactive: -0.263 | inactive: -1.38 |
| COc1cc2nc(N(C)CCCNC(=O)C3CCCO3)nc(N)c2cc1OC (stereo not drawn) [Alfuzosin hydrochloride (Uroxatral)] | inactive: -1.02 | inactive: -1.18 |
| NS(=O)(=O)c1cc2c(cc1Cl)N=C(CSCc1ccccc1)NS2(=O)=O [Benzthiazide] | inactive: -0.743 | inactive: 1.64 |
| CC(=O)Oc1ccccc1C(=O)O [Aspirin (Acetylsalicylic acid)] | inactive: -1.19 | inactive: -1.65 |
| O=S(=O)(O)CCS [Mesna (Uromitexan, Mesnex)] | inactive: 1.39 | inactive: -2.73 |
| O=C(CCCN1CC=C(n2c(=O)[nH]c3ccccc32)CC1)c1ccc(F)cc1 [Droperidol] | inactive: 0.419 | inactive: -1.4 |
| C=CCc1cc(OC)c(O)c(C(=O)NCCO)c1 [Alibendol] | inactive: -2.42 | inactive: 0.17 |
| C#CCN[C@@H]1CCc2ccccc21 [Rasagiline mesylate] | inactive: 0.136 | inactive: 0.0952 |
| Clc1ccc(COC(Cn2ccnc2)c2ccc(Cl)cc2Cl)cc1 (stereo not drawn) [Econazole nitrate (Spectazole)] | inactive: -1.29 | inactive: -3.21 |
| CN1CCN(CCCN2c3ccccc3Sc3ccc(Cl)cc32)CC1 [Prochlorperazine Dimaleate] | inactive: -0.582 | inactive: 1.44 |
| CN(CCOc1ccc(NS(C)(=O)=O)cc1)CCc1ccc(NS(C)(=O)=O)cc1 [Dofetilide (Tikosyn)] | inactive: 0.533 | inactive: 0.475 |
| CO[C@H]1/C=C/O[C@@]2(C)Oc3c(C)c(O)c4c(O)c(c(/C=N/N5CCN(C)CC5)c(O)c4c3C2=O)NC(=O)/C(C)=C\C=C\[C@H](C)[C@H](O)[C@@H](C)[C@@H](O)[C@@H](C)[C@H](OC(C)=O)[C@@H]1C [Rifampin (Rifadin, Rimactane)] | inactive: -1.18 | inactive: -0.0868 |
| CC(C)OC(=O)OCOP(=O)(CO[C@H](C)Cn1cnc2c(N)ncnc21)OCOC(=O)OC(C)C [Tenofovir Disoproxil Fumarate] | inactive: -1.42 | inactive: -1.02 |
| OC(Cn1cncn1)(Cn1cncn1)c1ccc(F)cc1F [Fluconazole] | inactive: -0.334 | inactive: 0.597 |
| NC(=O)Cc1cccc(C(=O)c2ccccc2)c1N [Nepafenac] | inactive: 0.00292 | inactive: -2.15 |
| CCc1c2c(nc3ccc(OC(=O)N4CCC(N5CCCCC5)CC4)cc13)-c1cc3c(c(=O)n1C2)COC(=O)[C@]3(O)CC [Irinotecan HCl Trihydrate (Campto)] | inactive: -4.18 | inactive: -4.96 |
| C[C@]12CC[C@@H]3c4ccc(O)cc4CC[C@H]3[C@@H]1CC[C@@H]2O [Estradiol] | inactive: -2.57 | inactive: 0.881 |
| CCCCCCCCCCCCCCCC(=O)O[C@@H]1[C@@H](O)[C@@H](O)[C@@H]([C@H](NC(=O)[C@@H]2C[C@@H](CCC)CN2C)[C@H](C)Cl)O[C@@H]1SC [Clindamycin palmitate HCl] | inactive: -2.92 | inactive: -0.261 |
| CC1CCc2cc(F)cc3c(=O)c(C(=O)O)cn1c23 (stereo not drawn) [Flumequine] | inactive: -0.707 | inactive: -0.839 |
| C[C@H](Cc1cc2c(c(C(N)=O)c1)N(CCCO)CC2)NCCOc1ccccc1OCC(F)(F)F [Silodosin (Rapaflo)] | inactive: -1.04 | inactive: -3.52 |
| CN1[C@@H]2CC[C@H]1C[C@@H](OC(c1ccccc1)c1ccccc1)C2 [Benztropine mesylate] | inactive: -0.837 | inactive: -3.65 |
| CN1C2CCC1CC(OC(=O)C(O)c1ccccc1)C2 (stereo not drawn) [Homatropine Bromide] | inactive: -0.639 | inactive: -0.308 |
| CCOC(=O)C(CCc1ccccc1)NC(C)C(=O)N1C(=O)N(C)CC1C(=O)O (stereo not drawn) [Imidapril (Tanatril) HCl] | inactive: 0.376 | inactive: -0.625 |
| CC1=NN(c2ccccc2)C(=O)C1 [Edaravone (MCI-186)] | inactive: -4.6 | inactive: -0.2 |
| CCN1CC(CCN2CCOCC2)C(c2ccccc2)(c2ccccc2)C1=O (stereo not drawn) [Doxapram HCl] | inactive: -0.0428 | inactive: 1.08 |
| Oc1ccc(OCc2ccccc2)cc1 [Monobenzone (Benoquin)] | inactive: -3.2 | inactive: -2.07 |
| O=C(O)CCCC[C@@H]1SC[C@@H]2NC(=O)N[C@@H]21 [Biotin (Vitamin B7)] | inactive: -0.969 | inactive: 0.407 |

Filtered by structure, those above with an aryl methoxy group

| SMILES | secreted FVIII-Gluc luciferase Z-score (HEK293 WT BDD-FVIII-Gluc) | secreted FVIII-Gluc luciferase Z-score [1] |
| --- | --- | --- |
| COc1cc2nc(N(C)CCCNC(=O)C3CCCO3)nc(N)c2cc1OC (stereo not drawn) [Alfuzosin hydrochloride (Uroxatral)] | inactive: -1.02 | inactive: -1.18 |
| C=CCc1cc(OC)c(O)c(C(=O)NCCO)c1 [Alibendol] | inactive: -2.42 | inactive: 0.17 |
